# Results: PubChem BioAssay AID445 (National Center for Advancing Translational Sciences (NCATS), 2006)
# Some of the results follow. Further columns of the screen follow, without active or inactive calls. Most of these compounds were active or inconclusive in the main read-out, so they are no random draw. The note in brackets gives the kind of curve behind each potency; many fits are weak.
# Test: IkB Signaling
# Details: ABC-DLBCL IkBa-CBG/CBR dual luciferase ratio (green luciferase fused to IkBa over red control in OCI-Ly3 lymphoma cells), 4 h
# Method in brief: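 Curves were fitted separately to fusion (green), unfused (red) and ratio luminescence, then classed by r2, magnitude and activity. Cells: OCI-Ly3, 4 h compound plus doxycycline at 37C; 10 uM MG-132 defined full response.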
# [1] = measured here: control luc red channel unless noted
smiles,measurement,setting,value
Cc1cccc(N2CCN(C3=C(c4ccccc4)C(=O)c4ccccc43)CC2)c1C,AC50,[1],"7.94 µM [falling, partial curve]"
COc1cc(OC)c(OC)cc1/C=C/c1nc2cc3ccccc3cc2c(=O)n1-c1ccccc1Br,AC50,[1],"1.58 µM [falling, full curve]"
c1ccc(C2=Nn3c(nnc3-c3cc(-c4ccccc4)n[nH]3)SC2)cc1,AC50,[1],"25.1 µM [falling, single point]"
COCCNC(=O)c1cc(-c2cccc(OC)c2)on1,AC50,[1],"12.6 µM [falling, partial curve]"
CCN1CCN(c2oc(-c3ccc(COc4ccccc4C)o3)nc2C#N)CC1,AC50,[1],"31.6 µM [falling, single point]"
O=C(Nc1cccc(-c2nc3cc(Cl)ccc3o2)c1)C1CCCO1 (centres undefined),AC50,[1],"15.8 µM [falling, single point]"
Cc1noc(C)c1S(=O)(=O)N(CC(=O)Nc1ccc(F)cc1F)c1ccc(C(C)C)cc1,AC50,[1],"3.98 µM [falling, full curve]"
CCCNC(=O)c1ccc2c(c1)nc1n2CCCCC1,AC50,[1],"39.8 µM [falling, single point]"
COc1cccc(CNC(=O)Cn2ncn3nc(-c4cccs4)cc3c2=O)c1,AC50,[1],"31.6 µM [falling, single point]"
COc1ccc(Cn2ccc3nc(C)c(C(=O)Nc4cccc(SC)c4)cc3c2=O)cc1,AC50,[1],"15.8 µM [falling, partial curve]"
COc1cc(OC)cc(C(=O)Nc2cc3c(cc2N2CCCCC2)n(C)c(=O)n3C)c1,AC50,[1],"39.8 µM [falling, single point]"
CCN(CCNC(=O)C1CCN(Cc2nc(-c3ccc(Cl)cc3)oc2C)CC1)c1ccccc1,AC50,[1],"10 µM [falling, partial curve]"
COc1ccc(C)cc1-n1nnnc1SCc1nc2ccccc2s1,AC50,[1],"6.31 µM [falling, partial curve]"
Cc1ccc(N2C(=O)CC(c3ccccc3F)C3=C2COC3=O)cc1Cl (centres undefined),AC50,[1],"20 µM [falling, single point]"
O=C(NCCc1c[nH]c2ccccc12)c1ccc(S(=O)(=O)NCc2ccco2)cc1,AC50,[1],"20 µM [falling, partial curve]"
CC(C)c1ccc(C2Sc3ccccc3NC3=C2C(=O)c2ccccc23)cc1 (centres undefined),AC50,[1],"3.98 µM [falling, full curve]"
COC(=O)COc1ccc(C2C(C(=O)OC)=C(C)NC3=C2C(=O)c2ccccc23)cc1OC (centres undefined),AC50,[1],"10 µM [falling, partial curve]"
COc1ccc(CCNC(=O)Cc2c(C)c3cc4c(C(C)(C)C)coc4c(C)c3oc2=O)cc1OC,AC50,[1],"12.6 µM [falling, partial curve]"
Cc1ccc2c(c1)cc1c(=O)n(Cc3cccc(Cl)c3)nc(C)n12,AC50,[1],"3.98 µM [falling, partial curve]"
O=C(CSC1=NCCS1)Nc1nc(-c2ccccc2)cs1,AC50,[1],"15.8 µM [falling, partial curve]"
O=C(Nc1cc(Cl)ccc1Cl)c1cc(S(=O)(=O)NCCc2ccccc2)ccc1F,AC50,[1],"15.8 µM [falling, partial curve]"
Cc1ccc(C(=O)N(Cc2ccco2)Cc2sccc2C)cc1,AC50,[1],"25.1 µM [falling, partial curve]"
O=C(COc1ccccc1F)Nc1ccccc1C(=O)OCc1cc(=O)n2nc(C3CC3)sc2n1,AC50,[1],"3.98 µM [falling, full curve]"
O=C(NCc1ccc(Cl)cc1)c1cc2c(s1)-c1ccccc1SC2,AC50,[1],"10 µM [falling, partial curve]"
COc1ccc(C(=O)Nc2cccc(-c3cn4ccsc4n3)c2)cc1OC,AC50,[1],"25.1 µM [falling, partial curve]"
CCCN1CCN(CCCNC(=O)c2ccc3c(c2)sc2nc(-c4ccc(OC)cc4)cn23)CC1,AC50,[1],"20 µM [falling, partial curve]"
Cc1ccccc1Cn1c(CN2CCC(C(=O)NCc3cccnc3)CC2)cc2ccccc21,AC50,[1],"15.8 µM [falling, single point]"
CCOC(=O)C1CCN(C(=O)Cn2nc(C)n3c(cc4sccc43)c2=O)CC1,AC50,[1],"0.00794 µM [falling, full curve, poor fit]"
Cn1c(SCC(=O)N2CCOCC2)ncc(C(=O)Nc2ccccc2)c1=O,AC50,measured here: IkB-luc green channel,"31.6 µM [rising, partial curve]"
same,AC50,measured here: control luc red channel,"15.8 µM [rising, partial curve]"
COc1ccccc1-n1c(CNC(=O)c2ccco2)nnc1SCC(=O)Nc1cc(C)ccc1C,AC50,[1],"0.631 µM [falling, full curve]"
CCc1ccc(NC(=O)CCn2c(-c3ccc(OC)cc3)cc(C(C)=O)c2C)cc1,AC50,[1],"1.26 µM [rising, full curve]"
c1ccc(-c2cc3c(N4CCOCC4)ncnc3s2)cc1,AC50,[1],"10 µM [falling, partial curve]"
CC1CCN(c2nc3c(S(=O)(=O)c4ccccc4)nnn3c3ccc(Cl)cc23)CC1,AC50,[1],"12.6 µM [falling, partial curve]"
COc1cccc(Cc2nc3ccccc3nc2SCC(=O)NCCc2ccccc2)c1,AC50,[1],"12.6 µM [falling, partial curve]"
COc1ccc(C2C=C(c3ccc(F)cc3)Nc3nc(-c4ccc(Cl)cc4)nn32)cc1 (centres undefined),AC50,[1],"20 µM [falling, single point]"
Cc1ccc(-c2nc3ccccc3[nH]2)cc1NC(=O)COc1ccccc1[N+](=O)[O-],AC50,[1],"39.8 µM [falling, single point]"
COc1ccccc1NC(=O)NCCCN1CCN(c2ccc(F)cc2)CC1,AC50,[1],"10 µM [falling, partial curve]"
O=C(Nc1ccc2nc(-c3cccs3)c(-c3cccs3)nc2c1)N1CCOCC1,AC50,[1],"7.94 µM [falling, partial curve]"
CC(=O)c1ccc(NC(=O)Cn2nc(C(F)(F)F)c3c2CCC3)cc1,AC50,[1],"15.8 µM [falling, partial curve]"
Cc1ccc(CSc2c(C)cnc3c2c(=O)n(C)c(=O)n3C)cc1,AC50,[1],"1 µM [falling, single point]"
O=C(CCn1c(=O)oc2ccccc21)N1CCN(C(c2ccccc2)c2ccccc2)CC1,AC50,[1],"20 µM [falling, partial curve]"
CCOC(=O)C1=C(CN2CCN(c3ccc(Cl)cc3)CC2)NC(=O)NC1c1ccc(OC)cc1 (centres undefined),AC50,[1],"10 µM [falling, partial curve]"
COc1cccc2sc(NC(=O)c3ccc4c(c3)OCCO4)nc12,AC50,[1],"2 µM [falling, partial curve]"
CCCNC(=O)NC(=O)COC(=O)c1ccc(OC)c(S(=O)(=O)N2CCCc3ccccc32)c1,AC50,[1],"31.6 µM [falling, partial curve]"
CCCc1ccc(-c2ccc(F)c(N)c2)nc1,AC50,[1],"12.6 µM [falling, partial curve]"
Cc1ccc(Cl)cc1N1CCN(C(=O)Cn2cnc3onc(-c4ccc(F)cc4)c3c2=O)CC1,AC50,[1],"7.94 µM [falling, partial curve]"
COc1ccc(-c2cc3nc(C)c(CCC(=O)NCc4ccco4)c(C)n3n2)c(OC)c1,AC50,[1],"0.251 µM [falling, full curve]"
Cc1ccc2nc(-c3ccc(NC(=O)Cc4ccccc4)cc3)sc2c1,AC50,[1],"7.94 µM [rising, partial curve]"
COC(=O)c1ccc(CSc2ncnc3c2oc2ccccc23)o1,AC50,[1],"1.26 µM [falling, full curve, poor fit]"
COc1ccc(C(=O)CSc2nnc(COc3ccccc3)n2Cc2ccco2)cc1,AC50,[1],"10 µM [falling, partial curve]"
CS(=O)(=O)N1CCc2cc(-c3csc(NC(=O)Cc4cccs4)n3)ccc21,AC50,[1],"15.8 µM [falling, partial curve]"
C=CCn1c(-c2ccc(OC)c(OC)c2)cs/c1=N\c1ccccn1,AC50,[1],"15.8 µM [falling, partial curve]"
COc1cc(NC(=O)c2ccc(COc3ccccc3Br)o2)cc(OC)c1OC,AC50,[1],"3.98 µM [falling, full curve]"
CC(C)(C)c1cnnn1-c1ccc(NC(=O)c2ccc(Br)o2)cc1,AC50,[1],"3.98 µM [falling, full curve, poor fit]"
Cc1ccc(CNC(=O)CCNS(=O)(=O)c2ccc3c(c2)oc(=O)n3C)cc1,AC50,[1],"3.16 µM [falling, full curve, poor fit]"
Cc1cc(C)c(S(=O)(=O)Nc2ccc3oc(C)c(C(=O)OC(C)C)c3c2)cc1C,AC50,[1],"31.6 µM [falling, partial curve]"
COc1cccc(Nc2nnc(-c3cc4ccc(O)cc4oc3=O)s2)c1,AC50,[1],"0.316 µM [falling, full curve]"
Cc1nn(C)c2c1c(C(F)(F)F)cc(=O)n2CC(=O)NCc1ccc(OC(C)C)cc1,AC50,[1],"31.6 µM [falling, single point]"
CCOC(=O)c1ccccc1NC(=O)c1c(F)c(F)c(F)c(F)c1F,AC50,[1],"15.8 µM [falling, partial curve]"
COc1cc(Cn2c(=O)oc3ccc(C)cc32)ccc1OCCC(C)C,AC50,[1],"12.6 µM [falling, single point]"
CC(C)(C)c1ccc(S(=O)(=O)N2CCC(Oc3ccc(-n4cnnn4)cc3)CC2)cc1,AC50,[1],"0.794 µM [falling, full curve, poor fit]"
COc1cccc(C(c2nnnn2Cc2ccc(F)cc2)N2CCC(C(N)=O)CC2)c1OC (centres undefined),AC50,[1],"15.8 µM [falling, partial curve]"
O=C(CSc1nc2ccsc2c(=O)n1Cc1ccc(F)cc1)NCc1ccc(Cl)cc1,AC50,[1],"0.158 µM [rising, full curve]"

# Some of the entries so far, bar-delimited:
smiles | measurement | setting | value
COc1cccc2sc(NC(=O)c3ccc4c(c3)OCCO4)nc12 | AC50 | [1] | 2 µM [falling, partial curve]
CCCNC(=O)NC(=O)COC(=O)c1ccc(OC)c(S(=O)(=O)N2CCCc3ccccc32)c1 | AC50 | [1] | 31.6 µM [falling, partial curve]
CCCc1ccc(-c2ccc(F)c(N)c2)nc1 | AC50 | [1] | 12.6 µM [falling, partial curve]
Cc1ccc(Cl)cc1N1CCN(C(=O)Cn2cnc3onc(-c4ccc(F)cc4)c3c2=O)CC1 | AC50 | [1] | 7.94 µM [falling, partial curve]
COc1ccc(-c2cc3nc(C)c(CCC(=O)NCc4ccco4)c(C)n3n2)c(OC)c1 | AC50 | [1] | 0.251 µM [falling, full curve]
Cc1ccc2nc(-c3ccc(NC(=O)Cc4ccccc4)cc3)sc2c1 | AC50 | [1] | 7.94 µM [rising, partial curve]
COC(=O)c1ccc(CSc2ncnc3c2oc2ccccc23)o1 | AC50 | [1] | 1.26 µM [falling, full curve, poor fit]
COc1ccc(C(=O)CSc2nnc(COc3ccccc3)n2Cc2ccco2)cc1 | AC50 | [1] | 10 µM [falling, partial curve]
CS(=O)(=O)N1CCc2cc(-c3csc(NC(=O)Cc4cccs4)n3)ccc21 | AC50 | [1] | 15.8 µM [falling, partial curve]
C=CCn1c(-c2ccc(OC)c(OC)c2)cs/c1=N\c1ccccn1 | AC50 | [1] | 15.8 µM [falling, partial curve]
COc1cc(NC(=O)c2ccc(COc3ccccc3Br)o2)cc(OC)c1OC | AC50 | [1] | 3.98 µM [falling, full curve]
CC(C)(C)c1cnnn1-c1ccc(NC(=O)c2ccc(Br)o2)cc1 | AC50 | [1] | 3.98 µM [falling, full curve, poor fit]
Cc1ccc(CNC(=O)CCNS(=O)(=O)c2ccc3c(c2)oc(=O)n3C)cc1 | AC50 | [1] | 3.16 µM [falling, full curve, poor fit]
Cc1cc(C)c(S(=O)(=O)Nc2ccc3oc(C)c(C(=O)OC(C)C)c3c2)cc1C | AC50 | [1] | 31.6 µM [falling, partial curve]
